Assay results: the supplement of paper PMC4749390
Where a name gives a salt, the structure may show the parent alone. The list shows a part of the results. This data set is noisy: repeats of one test often differ as much as different tests do.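 JEG3 cells stably carry tetracycline-induced wild-type human LRH-1, a heavily sumoylated nuclear receptor. APOC3 and MUC1 are SUMO-sensitive transcripts, raised by SUMO-less LRH-1 or UBC9 knockdown, measured by RT-qPCR against TBP and DMSO controls. A robust Z-score above +2 or below -2 marked a primary hit before toxicity and TBP filtering.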

Each compound was assayed on JEG3 expressing hLRH-1 (assay: APOC3 transcript change (ddCt vs TBP and DMSO), Z-score over library; higher = higher APOC3 expression). Settings: 10 µM; time (hr): 24.

| Compound | APOC3 transcript change (Z-score) |
| --- | --- |
| CN(C)CC/C=C1/c2ccccc2COc2ccccc21 [doxepin hydrochloride] | -0.284 |
| N[C@@H](C(=O)N[C@@H]1C(=O)N2C(C(=O)O)=C(Cl)CS[C@H]12)c1ccccc1 [cefaclor] | -0.721 |
| Clc1ccc(COC(Cn2ccnc2)c2ccc(Cl)cc2Cl)c(Cl)c1 (stereo unspecified) [miconazole nitrate] | 1.9 |
| CC(=O)OCC(=O)[C@@]1(O)[C@H](C)CC2C3CCC4=CC(=O)C=C[C@]4(C)[C@@]3(F)[C@@H](O)C[C@@]21C (stereo partly specified) [dexamethasone acetate] | 0.124 |
| Cc1c(-c2cnccn2)ssc1=S [oltipraz] | -0.278 |
| O=C1CN(/N=C/c2ccc([N+](=O)[O-])o2)C(=O)N1 [nitrofurantoin] | -0.147 |
| O=C(O)COCCN1CCN(C(c2ccccc2)c2ccc(Cl)cc2)CC1 (stereo unspecified) [cetirizine hydrochloride] | -1.33 |
| CCC(=O)O[C@]1(C(=O)CCl)[C@@H](C)C[C@H]2[C@@H]3CCC4=CC(=O)C=C[C@]4(C)[C@@]3(F)[C@@H](O)C[C@@]21C [clobetasol propionate] | 0.0504 |
| CC(C)NCC(O)c1ccc2ccccc2c1 (stereo unspecified) [pronetalol hydrochloride] | -1.67 |
| Cc1nc2n(c(=O)c1CCN1CCC(c3noc4cc(F)ccc34)CC1)CCC[C@H]2O [paliperidone] | -0.208 |
| CC(NCCc1ccc(O)cc1)C(O)c1ccc(O)cc1 (stereo unspecified) [ritodrine hydrochloride] | -0.223 |
| CN1CCC(=C2c3ccccc3CC(=O)c3sccc32)CC1 [ketotifen fumarate] | 1.32 |
| CCOC(=O)C1=C[C@]2(CC)CCCN3CCc4c(n1c1ccccc41)[C@@H]32 [vinpocetine] | 0.522 |
| Cc1ccc(O)cc1 [cresol] | 1.02 |
| C/C(=C\C(=O)OCCCCCCCCC(=O)O)C[C@@H]1OC[C@H](C[C@@H]2O[C@H]2[C@@H](C)[C@H](C)O)[C@@H](O)[C@H]1O [mupirocin] | -0.123 |
| NS(=O)(=O)c1ccc(C(=O)O)cc1 [carzenide] | 0.141 |
| CCCN(CCC)S(=O)(=O)c1ccc(C(=O)O)cc1 [probenecid] | -0.685 |
| CN(C(=O)C(Cl)Cl)c1ccc(OC(=O)c2ccco2)cc1 [diloxanide furoate] | -0.373 |
| C[C@H]1C[C@@H]2[C@H]([C@@H](O)C[C@@]3(C)[C@H]2CC[C@]3(O)C(=O)CO)[C@@]2(C)C=CC(=O)C=C12 [methylprednisolone] | 0.441 |
| CCC(=O)NCC[C@@H]1CCc2ccc3c(c21)CCO3 [ramelteon] | 0.151 |
| Cc1nc2n(c(=O)c1CCN1CCC(c3noc4cc(F)ccc34)CC1)CCCC2 [Risperidone] | -1.24 |
| CCc1oc2ccccc2c1C(=O)c1cc(Br)c(O)c(Br)c1 [benzbromarone] | 0.193 |
| Clc1cccc(Cl)c1NC1=NCCN1 [Clonidine hydrochloride] | 1.24 |
| CC(=O)Oc1cccc2c1C(=O)c1c(OC(C)=O)cc(C(=O)O)cc1C2=O [diacerin] | -1.23 |
| CC(C)COCC(CN(Cc1ccccc1)c1ccccc1)N1CCCC1 (stereo unspecified) [Bepridil hydrochloride] | 0.975 |
| CN(C)CCOC(C)(c1ccccc1)c1ccccn1 (stereo unspecified) [doxylamine succinate] | -0.34 |

In the list so far, these have four or more nitrogen atoms.

| Compound | APOC3 transcript change (Z-score) |
| --- | --- |
| O=C1CN(/N=C/c2ccc([N+](=O)[O-])o2)C(=O)N1 [nitrofurantoin] | -0.147 |
| Cc1nc2n(c(=O)c1CCN1CCC(c3noc4cc(F)ccc34)CC1)CCC[C@H]2O [paliperidone] | -0.208 |
| Cc1nc2n(c(=O)c1CCN1CCC(c3noc4cc(F)ccc34)CC1)CCCC2 [Risperidone] | -1.24 |

Further structures follow.

| Compound | APOC3 transcript change (Z-score) |
| --- | --- |
| CC1=C(C)C(=O)C(C(CCCCCC(=O)O)c2ccccc2)=C(C)C1=O (stereo unspecified) [seratrodast] | -0.678 |
| C[n+]1cc2c3c(ccc2c2ccc4cc5c(cc4c21)OCO5)OCO3 [Sanguinarine chloride] | 2.54 |
| CN(C)CCCOc1nn(Cc2ccccc2)c2ccccc12 [benzydamine hydrochloride] | 0.231 |
| CC(=O)Nc1ncc([N+](=O)[O-])s1 [nithiamide] | 0.487 |
| NCC(O)CC(=O)O (stereo unspecified) [aminohydroxybutyric acid] | -0.648 |
| NNc1nncc2ccccc12 [hydralazine hydrochloride] | -0.728 |
| Cc1cc(=O)n(-c2ccccc2)n1C [antipyrine] | -0.513 |
| CCN(CC)CC#CCOC(=O)C(O)(c1ccccc1)C1CCCCC1 (stereo unspecified) [oxybutynin chloride] | 0.902 |
| C[C@@H]1O[C@@H](OC[C@H]2OC(Oc3c(-c4ccc(O)c(O)c4)oc4cc(O)cc(O)c4c3=O)[C@H](O)[C@@H](O)[C@@H]2O)[C@H](O)[C@H](O)[C@H]1O (stereo partly specified) [rutin] | -0.0889 |
| C1CNCCN1 [piperazine] | -3.1 |
| O=C(O)CSCC(=O)NC1CCSC1=O (stereo unspecified) [erdosteine] | -0.433 |
| CC(C)c1ccc2oc3nc(N)c(C(=O)O)cc3c(=O)c2c1 [amlexanox] | 0.125 |
| CCOC(N)=O [urethane] | 0.743 |
| CC(C)C(=O)Nc1ccc([N+](=O)[O-])c(C(F)(F)F)c1 [flutamide] | -0.0923 |
| CC(CCc1ccc(O)cc1)NCC(O)c1ccc(O)cc1 (stereo unspecified) [ractopamine hydrochloride] | 0.269 |
| Cc1ccc(/C(=C\CN2CCCC2)c2ccccn2)cc1 [Triprolidine hydrochloride] | 0.256 |
| COc1cc2nc(N3CCN(C(=O)c4ccco4)CC3)nc(N)c2cc1OC [prazosin hydrochloride] | -0.365 |
| Oc1ccc2ccccc2c1 [beta-naphthol] | 0.356 |
| N[C@@H](CC(=O)N1CCn2c(nnc2C(F)(F)F)C1)Cc1cc(F)c(F)cc1F [sitagliptin monophosphate monohydrate] | -0.702 |
| CC(=O)SCC(Cc1ccccc1)C(=O)NCC(=O)OCc1ccccc1 (stereo unspecified) [racecadotril] | 0.285 |
| OCCN(CCO)c1nc(N2CCCCC2)c2nc(N(CCO)CCO)nc(N3CCCCC3)c2n1 [Dipyridamole] | 0.472 |
| C=C1c2c(Cl)ccc(O)c2C(O)=C2C(=O)[C@]3(O)C(O)=C(C(N)=O)C(=O)[C@@H](N(C)C)[C@@H]3[C@@H](O)[C@H]12 [meclocycline sulfosalicylate] | -0.114 |
| CC(=O)Nc1ccc(S(=O)(=O)Nc2onc(C)c2C)cc1 [sulfisoxazole acetyl] | 0.149 |
| CCCCC(O)c1ccccc1 (stereo unspecified) [fenipentol] | 0.575 |
| COc1cc2nc(N3CCN(C(=O)C4COc5ccccc5O4)CC3)nc(N)c2cc1OC (stereo unspecified) [doxazosin mesylate] | 0.239 |
